Here are results for 1 molecule from PMC9010950.

No constants are given. Whether binding was seen depends on the method and setting. Binding seen in cells or lysates may run through a third protein. A yes stands for co-enrichment or nearness to the bait. Other partners may have been found. Sequences can lack the tags named with a protein.

In the assay the target is T1, carboxypeptidase N1 (CPN1), overexpressed from pCMV3-SP-Flag-CPN1 (UniProt P15169).
T1 sequence: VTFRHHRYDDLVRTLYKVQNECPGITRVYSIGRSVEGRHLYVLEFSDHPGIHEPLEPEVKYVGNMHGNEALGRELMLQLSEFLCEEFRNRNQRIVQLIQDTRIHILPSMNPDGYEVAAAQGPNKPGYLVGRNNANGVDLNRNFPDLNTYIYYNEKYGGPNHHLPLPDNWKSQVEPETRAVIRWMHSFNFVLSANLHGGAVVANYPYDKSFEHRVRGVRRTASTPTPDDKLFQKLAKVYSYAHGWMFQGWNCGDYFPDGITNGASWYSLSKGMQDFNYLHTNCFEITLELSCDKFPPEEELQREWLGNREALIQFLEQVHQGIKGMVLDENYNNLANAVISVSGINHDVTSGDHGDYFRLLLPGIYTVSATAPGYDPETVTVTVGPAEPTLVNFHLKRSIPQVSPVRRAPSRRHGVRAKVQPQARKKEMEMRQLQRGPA
As to the kind of experiment: affinity purification with mass spectrometry; 293T cells transfected with the CPN1 overexpression plasmid or the empty plasmid; Co-IP Kit (Thermo Fisher Scientific); protein complexes eluted with CPN1 antibody; IgG group as negative control; part of the eluate sent for mass spectrometry.

B1: retinoic acid-induced protein 14 (RAI14) (protein, UniProt Q9P0K7 1-980)
chain: MKSLKAKFRKSDTNEWNKNDDRLLQAVENGDAEKVASLLGKKGASATKHDSEGKTAFHLAAAKGHVECLRVMITHGVDVTAQDTTGHSALHLAAKNSHHECIRKLLQSKCPAESVDSSGKTALHYAAAQGCLQAVQILCEHKSPINLKDLDGNIPLLLAVQNGHSEICHFLLDHGADVNSRNKSGRTALMLACEIGSSNAVEALIKKGADLNLVDSLGYNALHYSKLSENAGIQSLLLSKISQDADLKTPTKPKQHDQVSKISSERSGTPKKRKAPPPPISPTQLSDVSSPRSITSTPLSGKESVFFAEPPFKAEISSIRENKDRLSDSTTGADSLLDISSEADQQDLLSLLQAKVASLTLHNKELQDKLQAKSPKEAEADLSFDSYHSTQTDLGPSLGKPGETSPPDSKSSPSVLIHSLGKSTTDNDVRIQQLQEILQDLQKRLESSEAERKQLQVELQSRRAELVCLNNTEISENSSDLSQKLKETQSKYEEAMKEVLSVQKQMKLGLVSPESMDNYSHFHELRVTEEEINVLKQDLQNALEESERNKEKVRELEEKLVEREKGTVIKPPVEEYEEMKSSYCSVIENMNKEKAFLFEKYQEAQEEIMKLKDTLKSQMTQEASDEAEDMKEAMNRMIDELNKQVSELSQLYKEAQAELEDYRKRKSLEDVTAEYIHKAEHEKLMQLTNVSRAKAEDALSEMKSQYSKVLNELTQLKQLVDAQKENSVSITEHLQVITTLRTAAKEMEEKISNLKEHLASKEVEVAKLEKQLLEEKAAMTDAMVPRSSYEKLQSSLESEVSVLASKLKESVKEKEKVHSEVVQIRSEVSQVKREKENIQTLLKSKEQEVNELLQKFQQAQEELAEMKRYAESSSKLEEDKDKKINEMSKEVTKLKEALNSLSQLSYSTSSSKRQSQQLEALQQQVKQLQNQLAECKKQHQEVISVYRMHLLYAVQGQMDEDVQKVLKQILTMCKNQSQKK
For B1, the binding entry is given as “binds”.
